Assay results as given in PubChem BioAssay AID493014 (National Center for Advancing Translational Sciences (NCATS), 2011).
Values joined by “and” are separate entries in the source; they are usually repeats but may differ in a detail not shown here. Equal values may be shown once. The list shows a part of the results. These are further read-outs of the screen, such as a control signal, another cell line or another target. No call is given for them. Most of these compounds were active or inconclusive in the main read-out, so they are no random draw. The note in brackets gives the kind of curve behind each potency; many fits are weak.

Experiment: qHTS Assay to Find Inhibitors of Chronic Active B-Cell Receptor Signaling
Details: ABC-DLBCL IkBa-CBG/CBR reporter, luminescence ratio (green luciferase fused to IkBa over red control in TMD8 lymphoma cells), 4 h
In short: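 Cell line TMD8 (human ABC DLBCL), stably expressing tet-inducible CBG68-IkBa fusion and CBR; IMDM/0.5% FBS; cpd up to 46 uM; dox induction, 4 h, 37C/5% CO2; dual luminescence; green/red ratio; MG132 control.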

[1] = measured here: CBR red luminescence, cell number
[2] = measured here: IkBa-CBG green luminescence

## Cc1ccc(-n2c(SCC(=O)Nc3cccc(S(N)(=O)=O)c3)nc3ccccc32)cc1
[1]
  AC50: 14.6 µM [falling, single point]

## COc1ccc(F)c(C2C(C#N)=C(N)Oc3n[nH]c(C(C)(C)C)c32)c1 (stereo not drawn)
[1]
  AC50: 32.6 µM [falling, single point]

## c1ccc(-c2nnc(-c3ccccc3)nn2)cc1
[1]
  AC50: 0.112 µM [rising, full curve, poor fit]

## Clc1c(-c2nnc3n2CCCCC3)sc2ccccc12
[1]
  AC50: 17.8 µM [falling, single point]

## Cc1nnsc1-c1c(C(=O)Oc2ccccc2)c(C)nn1-c1ccccc1
[1]
  AC50: 35.5 µM [falling, single point]

## CCN(C(=O)CSc1nncn1-c1ccccc1)C1CCS(=O)(=O)C1 (stereo not drawn)
[1]
  AC50: 1.64 µM [rising, partial curve, poor fit]

## COc1ccc(OC)c(/C(C)=N/Nc2ccc(C(=O)O)cc2)c1
[1]
  AC50: 6.31 µM [falling, partial curve, poor fit]

## Oc1c(Br)cc(Br)c(/C=N/n2c(-c3ccccc3)n[nH]c2=S)c1Br
[1]
  AC50: 20 µM [falling, partial curve, poor fit]

## O=C(CN1CCN(S(=O)(=O)c2ccc(Cl)cc2)CC1)Nc1ccc2c(c1)OCO2
[1]
  AC50: 2.51 µM [falling, partial curve, poor fit]

## Cc1ccc(C(=O)Oc2ccccc2N2C(=O)C3CCC(C)CC3C2=O)cc1 (stereo not drawn)
[1]
  AC50: 0.411 µM [rising, full curve, poor fit]

## Cc1cc(F)ccc1S(=O)(=O)Nc1nc2ccccc2nc1Cl
[1]
  AC50: 2.82 µM [falling, full curve]

## O=C(NCCc1ccc(O)cc1)c1ccc(Cl)cc1
[1]
  AC50: 10 µM [falling, partial curve]

## COc1cccc(-c2cc(=O)c3cc(NC(C)=O)ccc3[nH]2)c1
[1]
  AC50: 18.4 µM [falling, single point]

## Cc1cccc(NC(=O)COc2ccc(Br)cc2/C=N/O)c1
[1]
  AC50: 18.4 µM [falling, single point]

## COc1ccccc1C(=O)NNC(=O)c1ccccc1
[1]
  AC50: 6.31 µM [falling, partial curve]

## CCOC(=O)c1oc2cccc(OC(C)=O)c2c1C
[1]
  AC50: 0.631 µM [falling, full curve]

## Cc1ccc(NC(=O)COc2ccccc2C#N)cc1S(=O)(=O)N1CCCCCC1
[1]
  AC50: 25.9 µM [falling, single point]

## O=C(c1c(Cl)cccc1Cl)N1CCN(c2ncccn2)CC1
[1]
  AC50: 0.708 µM [rising, full curve, poor fit]

## CCOC(=O)Nc1cc(C(=O)OC)ccc1C
[1]
  AC50: 18.4 µM [rising, partial curve]
[2]
  AC50: 10.3 µM [falling, partial curve, poor fit]

## O=C(Cn1cccc1)N1CCc2ccccc21
[1]
  AC50: 2.51 µM [rising, full curve, poor fit]

## CC(=O)c1ccc(S(=O)(=O)Oc2ccc(C(=O)O)cc2Cl)cc1
[1]
  AC50: 23.1 µM [falling, single point]

## COc1ccc(C2=Nn3c(nnc3-c3ccccc3Cl)SC2)cc1OCC1CC1
[1]
  AC50: 2.31 µM [rising, full curve, poor fit]
[2]
  AC50: 0.731 µM [falling, full curve]

## COc1ccc(CC(NC(C)=O)C(=O)N2CCN(C(=O)Nc3cccc(F)c3)CC2)cc1OC (stereo not drawn)
[1]
  AC50: 3.16 µM [falling, partial curve, poor fit]

## N/C(=N\OC(=O)Cc1cccs1)c1ccc([N+](=O)[O-])cc1
[1]
  AC50: 0.0411 µM [rising, full curve, poor fit]

## O=C(Nc1ccccn1)c1sc2cccc(F)c2c1Cl
[1]
  AC50: 3.98 µM [rising, full curve, poor fit]

## O=C(N/N=C/c1ccccc1Cl)c1ccc(F)cc1
[1]
  AC50: 15.8 µM [falling, partial curve, poor fit]

## O=S(=O)(c1ccc(Oc2ccccc2)cc1)N1CCOCC1
[1]
  AC50: 0.259 µM [rising, full curve]

## CC(C)[C@H](NC(N)=O)C(=O)NNC(=O)COc1cccc(C(F)(F)F)c1
[1]
  AC50: 0.501 µM [rising, full curve, poor fit]

## O=C(CO/N=C/c1ccccc1O)NNC(=O)c1ccccc1Cl
[1]
  AC50: 14.6 µM [rising, partial curve, poor fit]
[2]
  AC50: 11.6 µM [falling, partial curve, poor fit]

## CCN1CCCC1CNS(=O)(=O)c1cc(Br)cc2c1N(C(=O)C1CC1)CC2 (stereo not drawn)
[1]
  AC50: 20.6 µM [rising, partial curve, poor fit]

## Cc1cccc(Cn2ccc(N)n2)c1
[1]
  AC50: 25.1 µM [falling, single point]

## O=C(Nc1ccc(C(F)(F)F)cc1)c1cc(S(=O)(=O)N2CCCc3ccccc32)ccc1F
[1]
  AC50: 3.98 µM [falling, full curve]

## O=C(Nc1cccc2c1CCCC2)c1ccncc1
[1]
  AC50: 16.4 µM [rising, single point]

## Cc1nn(-c2ccc3ccccc3c2)c(=O)c2ccccc12
[1]
  AC50: 6.31 µM [rising, single point]

## COCCN(C(=O)COC(=O)CCc1c[nH]c2ccccc12)c1c(N)n(Cc2ccccc2)c(=O)[nH]c1=O
[1]
  AC50: 29.1 µM [falling, single point]

## COCCNc1nc(N)c([N+](=O)[O-])c(Nc2ccc(F)cc2)n1
[1]
  AC50: 0.708 µM [rising, full curve, poor fit]

## CN(C(=O)/C=C/c1ccc([N+](=O)[O-])s1)c1ccccc1
[1]
  AC50: 17.8 µM [falling, single point]

## O=C(Cn1nnc(-c2ccccc2)n1)Nc1cccc(S(=O)(=O)N2CCCC2)c1
[1]
  AC50: 29.1 µM [falling, single point]

## NC(=O)CSc1nc(-c2ccccc2)nc2ccccc12
[1]
  AC50: 7.94 µM [falling, partial curve]

## O=C(/C=C/NCc1ccc(F)cc1)c1ccccc1
[1]
  AC50: 2.59 µM [rising, full curve]

## COC(=O)c1ccccc1N/C=C/C(=O)c1ccc(Br)cc1
[1]
  AC50: 8.2 µM [falling, partial curve]

## Cn1c(SCC(=O)Nc2cccc3ccccc23)nc(O)cc1=O
[1]
  AC50: 0.517 µM [falling, full curve]
[2]
  AC50: 0.517 µM [rising, full curve, poor fit]

## Cc1ccc(-c2nnc(Nc3ccc4c(c3)OCO4)c3ccccc23)cc1S(=O)(=O)NCCO
[1]
  AC50: 6.51 µM [falling, partial curve]

## CCC(C)C(NC(N)=O)C(=O)Nc1ccc(C(=O)OC)cc1 (stereo not drawn)
[1]
  AC50: 35.5 µM [falling, single point]

## Cc1ccc(Nc2nc(CSc3nnc(-c4ccccc4C)n3C)cs2)cc1
[1]
  AC50: 32.6 µM [falling, single point]

## COCCn1c(=S)[nH]c2cc(OC)c(OC)cc2c1=O
[1]
  AC50: 0.651 µM [falling, full curve, poor fit]

## COc1ccc(-c2noc(C3CCCN(C(=O)c4c(F)cccc4F)C3)n2)cc1OC (stereo not drawn)
[1]
  AC50: 1.26 µM [rising, full curve, poor fit]

## CCOc1cc(C=C2C(=O)c3ccccc3C2=O)ccc1OCC(=O)Nc1ccc(C)cc1
[1]
  AC50: 0.164 µM [rising, full curve, poor fit]

## CC(/C=N/NC(=O)NC1CCCCC1)=C\c1ccccc1
[1]
  AC50: 11.2 µM [rising, partial curve]

## O=C(CNC(=O)c1ccc(Cl)cc1)OCCCOC(=O)CNC(=O)c1ccc(Cl)cc1
[1]
  AC50: 10 µM [rising, partial curve]

## COc1ccc(-c2nc(CSCC(=O)NC3CCCc4ccccc43)c(C)o2)cc1OC (stereo not drawn)
[1]
  AC50: 0.164 µM [rising, full curve, poor fit]

## COc1ccc(OC)c(-c2nnc3n2N=C(c2ccc(OC)c(OC)c2)CS3)c1
[1]
  AC50: 651 nM [rising, full curve, poor fit] and 1.3 µM [rising, full curve]
[2]
  AC50: 1.46 µM [falling, full curve] and 580 nM [falling, full curve]

## Cn1c(NN)nc2sc3c(c2c1=O)CCC3
[1]
  AC50: 2.91 µM [falling, full curve]

## CCOc1ccc(CC(=O)OCN2C(=O)c3ccccc3C2=O)cc1
[1]
  AC50: 10 µM [rising, partial curve, poor fit]

## CCCc1cc(=O)[nH]c(SCC(=O)c2c(N)n(C)c(=O)n(C)c2=O)n1
[1]
  AC50: 1.12 µM [rising, partial curve]

## Cc1noc(C)c1C(=O)Nc1sc2c(c1C(N)=O)CCC2
[1]
  AC50: 0.731 µM [falling, full curve, poor fit]

## COc1cc(OC)cc(C(=O)NC(C)CNc2ccc(Cl)cc2[N+](=O)[O-])c1 (stereo not drawn)
[1]
  AC50: 35.5 µM [falling, single point]

## Oc1ccc(-c2ccccc2)cc1CN1CCCCCC1
[1]
  AC50: 35.5 µM [falling, single point]

## CCOc1ccccc1NC(=O)Nc1ccc2c(c1)CCC2
[1]
  AC50: 35.5 µM [falling, single point]

## COc1cccc(NS(=O)(=O)c2ccc3c(c2)NC(=O)C(C)S3)c1 (stereo not drawn)
[1]
  AC50: 22.4 µM [falling, single point]

## CCOC(=O)c1ccc(Oc2nc(C)nc3c2oc2ccccc23)cc1
[1]
  AC50: 0.355 µM [rising, full curve, poor fit]

## COC(=O)c1cc(NC(=O)CN(c2ccccc2OC)S(=O)(=O)c2ccccc2)ccc1Cl
[1]
  AC50: 11.2 µM [falling, partial curve, poor fit]

## COC(=O)c1ccc(NC(=O)C(=O)c2cccn2C)cc1
[1]
  AC50: 7.94 µM [falling, partial curve]
